Data as given in PubChem BioAssay AID1224826 (NIAID, 2016)

Assay: 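Knock-downs that raise or lower Tnf reporter signal after endotoxin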 (primary screen)
Cell system: RAW264.7 G9 macrophages from mouse bearing reporters for p65 (GFP) and the Tnf promoter (mCherry)
Reagents: siRNA pool against mouse genes, 100 nM
Time to read-out: 16 h of LPS stimulation, after 2 days of siRNA transfection
Conditions: bacterial lipopolysaccharide (Salmonella minnesota R595), 10 ng/ml
Measured: 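Nuclear mCherry signal of the Tnf promoter reporter measured by imaging after background removal, scaled to each plate median and turned into robust z-scores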
Scale: Tnf reporter robust z-score: higher = stronger Tnf promoter reporter signal after LPS
Hit rule: 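a well counts as active at a score of -1.3 or below (Tlr4 knock-down control median) or above 3 (raised signal); controls and wells holding fewer than 50 cells are excluded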
Meaning of the calls: active = Tnf reporter clearly lowered or raised; inactive = no clear change in Tnf reporter
This is one part, drawn at random, of about 17,000 reagents tested. About 1,110 of all reagents (6.6%) count as active. 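Active means lowered or raised reporter signal; replicate intensities are raw and not normalised per plate.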 Not all columns of the deposit are shown. No sequences are given here.

Silencing of Jarid2 came out at: Tnf reporter robust z-score -1.51; fewer than 50 cells in well enough cells in well; active. For Prdm5, the values are Tnf reporter robust z-score -0.09; fewer than 50 cells in well enough cells in well; inactive. Nab1 scored Tnf reporter robust z-score -1.67; fewer than 50 cells in well enough cells in well; active. For Pop7, the values are Tnf reporter robust z-score -1.43; fewer than 50 cells in well enough cells in well; active. Against Trdn the deposit lists Tnf reporter robust z-score 1.03; fewer than 50 cells in well enough cells in well; inactive. Myl1 showed Tnf reporter robust z-score -1.75; fewer than 50 cells in well enough cells in well; active.

With knock-down of Zfp33b, the screen gave Tnf reporter robust z-score 0.56; fewer than 50 cells in well enough cells in well; inactive. Against A730018C14Rik, the values are Tnf reporter robust z-score 0.3; fewer than 50 cells in well enough cells in well; inactive.

Laid out differently: 2 of the entries above
{"gene symbol":"Pop7","Tnf reporter robust z-score":-1.43,"fewer than 50 cells in well":"enough cells in well","outcome":"active"}
{"gene symbol":"Trdn","Tnf reporter robust z-score":1.03,"fewer than 50 cells in well":"enough cells in well","outcome":"inactive"}

More entries follow.
Depletion of Or52ac1 gave: Tnf reporter robust z-score 5.56; fewer than 50 cells in well enough cells in well; active. Against Ropn1, the entry reads Tnf reporter robust z-score 1.55; fewer than 50 cells in well enough cells in well; inactive. Gabpa showed Tnf reporter robust z-score -0.95; fewer than 50 cells in well enough cells in well; inactive. Smn1 scored Tnf reporter robust z-score -0.24; fewer than 50 cells in well enough cells in well; inactive. Numb scored Tnf reporter robust z-score 0.45; fewer than 50 cells in well enough cells in well; inactive. Silencing of Gpx6 gave: Tnf reporter robust z-score -0.51; fewer than 50 cells in well enough cells in well; inactive.
